According to patent US20160215065A1 (Genentech, published 2016):
No constants are given. Whether binding was seen depends on the method and setting. Some results given as binding are weak or reduced against the parent protein; the word gives no strength.

Legend:
[1] = biological target: T1, mouse zymogen NSP4 (mZ) (mouse, UniProt Q14B24 36-284); assay: competition phage ELISA (phage IC50); phage clone preincubated with soluble mZ-NSP4, unbound phage caught on coated NSP4, A450 [Cont.]
T1 construct: mature; Expressed in CHO cells; also called mZ-NSP4; mZ (NSP4); not shown: N-terminal FLAG tag cleavable by enteropeptidase (cleavage after Asp-Asp-Asp-Asp-Lys)
T1 sequence (looked up): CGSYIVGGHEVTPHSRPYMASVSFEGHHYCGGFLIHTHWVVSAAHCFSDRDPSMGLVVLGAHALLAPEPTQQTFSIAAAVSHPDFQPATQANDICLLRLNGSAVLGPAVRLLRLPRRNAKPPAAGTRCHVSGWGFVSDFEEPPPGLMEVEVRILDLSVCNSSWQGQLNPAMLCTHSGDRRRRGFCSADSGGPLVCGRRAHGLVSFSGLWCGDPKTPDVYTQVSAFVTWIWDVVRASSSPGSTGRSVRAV

[2] = biological target: T2, recombinant mouse NSP4 (form not stated) (mouse, UniProt Q14B24 40-284, limits assumed); assay: BLI; antibody on sensor, 50 nM mouse NSP4 preincubated with buffer or 10 ug/ml heparin sulfate
T2 construct: also called mNSP4; soluble mNSP4
T2 sequence (looked up): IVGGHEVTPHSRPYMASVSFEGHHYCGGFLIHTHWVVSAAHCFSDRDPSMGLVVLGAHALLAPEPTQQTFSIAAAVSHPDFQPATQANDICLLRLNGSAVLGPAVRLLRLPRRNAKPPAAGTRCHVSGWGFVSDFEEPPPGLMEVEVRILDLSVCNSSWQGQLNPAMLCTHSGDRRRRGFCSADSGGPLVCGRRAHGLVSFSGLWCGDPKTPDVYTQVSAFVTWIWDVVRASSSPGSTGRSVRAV

[3] = biological target: T1, mouse zymogen NSP4 (mZ); assay: biolayer interferometry; human IgG1
[4] = biological target: T2, recombinant mouse NSP4 (form not stated); assay: BLI; antibody on sensor, 50 nM mouse NSP4 preincubated with buffer or Fab 5-1
[5] = biological target: T1, mouse zymogen NSP4 (mZ); assay: BLI; IgG1 on anti-human Fc sensor, NSP4 variant in solution, concentration not on sheet
[6] = biological target: T2, recombinant mouse NSP4 (form not stated); assay: biolayer interferometry; antibody on sensor, 50 nM mouse NSP4 preincubated with Fab 5-1
[7] = biological target: T3, recombinant human NSP4 (form not stated) (human) (UniProt Q6UWY2); assay: competition phage ELISA (phage IC50) with soluble hNSP4 competitor, A450
T3 sequence (looked up): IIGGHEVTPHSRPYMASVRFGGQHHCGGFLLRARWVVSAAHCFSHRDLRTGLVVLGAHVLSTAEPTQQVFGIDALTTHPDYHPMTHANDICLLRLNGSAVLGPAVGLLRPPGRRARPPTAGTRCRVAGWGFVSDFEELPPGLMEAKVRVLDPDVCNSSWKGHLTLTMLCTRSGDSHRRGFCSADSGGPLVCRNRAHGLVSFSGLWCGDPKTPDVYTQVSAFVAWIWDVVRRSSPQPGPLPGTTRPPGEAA

[8] = biological target: T2, recombinant mouse NSP4 (form not stated); assay: competition phage ELISA (phage IC50) with soluble mNSP4 competitor, A450
[9] = biological target: T2, recombinant mouse NSP4 (form not stated); assay: phage IC50 assay
[10] = biological target: T3, recombinant human NSP4 (form not stated) (human); assay: BLI; Ab 3-5 on sensor, human NSP4 with Fab 5-1
[11] = biological target: T2, recombinant mouse NSP4 (form not stated); assay: biolayer interferometry; Fab 5-1 preincubated with mouse NSP4 as competitor
[12] = biological target: T2, recombinant mouse NSP4 (form not stated); assay: BLI; Ab 3-2 or Ab 3-5 on sensor, mouse NSP4 preincubated with Fab 5-1
[13] = biological target: T3, recombinant human NSP4 (form not stated) (human); assay: BLI; antibody on sensor, human NSP4 with or without heparin sulfate
[14] = biological target: T3, recombinant human NSP4 (form not stated) (human); assay: BLI; antibody on sensor, human NSP4 with or without Fab 5-1

Measured: binding

B1: anti-NSP4 antibody 3-2 (antibody, human IgG1, V domains shown)
VH: EVQLVESGGGLVQPGGSLRLSCAASGFTFSDYSISWVRQAPGKGLEWVGEINPAGGATYYADSVKGRFTISADTSKNTAYLQMNSLRAEDTAVYYCARGDFPFWSDAYYVMDYWGQGTLVTVSS
VL: DIQMTQSPSSLSASVGDRVTITCRASQDVSTAVAWYQQKPGKAPKLLIYSASFLYSGVPSRFSGSGSGTDFTLTISSLQPEDFATYYCQQSYTTPPTFGQGTKVEIKR
notes: also called Ab 3-2; clone 3-2
binds: [1] | [2] | [3] | [4] | [5] | [6]

B2: affinity matured anti-NSP4 antibody clone 35.50 (Fab, V domains shown)
VH: EVQLVESGGGLVQPGGSLRLSCAASGFTFSDNDISWVRQAPGKGLEWVGSISPDNGDTNYADSVKGRFTISADTSKNTAYLQMNSLRAEDTAVYYCARDDVPAVFTSAMDYWGQGTLVTVSS
VL: DIQMTQSPSSLSASVGDRVTITCRASQDVSTAVAWYQQKPGKAPKLLIYSASFLYSGVPSRFSGSGSGTDFTLTISSLQPEDFATYYCQQSYDFPLTFGQGTKVEIKR
binds: [7] | [8] | [9]

B3: affinity matured anti-NSP4 antibody clone 35.14 (Fab, V domains shown)
VH: EVQLVESGGGLVQPGGSLRLSCAASGFTFSDNDISWVRQAPGKGLEWVGSISPDNGDTNYADSVKGRFTISADTSKNTAYLQMNSLRAEDTAVYYCARDDVPAVFTSAMDYWGQGTLVTVSS
VL: DIQMTQSPSSLSASVGDRVTITCRASQDVSTAVAWYQQKPGKAPKLLIYSASFLYSGVPSRFSGSGSGTDFTLTISSLQPEDFATYYCQQSYGFPLTFGQGTKVEIKR
binds: [7] | [8] | [9]

B4: NSP4 antibody 5-1 (Fab format) (Fab, V domains shown)
VH: EVQLVESGGGLVQPGGSLRLSCAASGFTFSGSGIHWVRQAPGKGLEWVAWISPTGGNTYYADSVKGRFTISADTSKNTAYLQMNSLRAEDTAVYYCAKSLFHNVAFDYWGQGTLVTVSS
VL: DIQMTQSPSSLSASVGDRVTITCRASQDVSTAVAWYQQKPGKAPKLLIYSASFLYSGVPSRFSGSGSGTDFTLTISSLQPEDFATYYCQQSYTTPPTFGQGTKVEIKR
binds: [10] | [11] | [12]

B5: affinity matured anti-NSP4 antibody clone 35.62 (Fab, V domains shown)
VH: EVQLVESGGGLVQPGGSLRLSCAASGFTFSDNDISWVRQAPGKGLEWVGSISPDNGDTNYADSVKGRFTISADTSKNTAYLQMNSLRAEDTAVYYCARDDVPAVFTSAMDYWGQGTLVTVSS
VL: DIQMTQSPSSLSASVGDRVTITCRASQDVSTAVAWYQQKPGKAPKLLIYSASFLYSGVPSRFSGSGSGTDFTLTISSLQPEDFATYYCQQSAGFPLTFGQGTKVEIKR
binds: [7] | [8] | [9]

B6: anti-NSP4 antibody 3-5 (antibody, human IgG1, V domains shown)
VH: EVQLVESGGGLVQPGGSLRLSCAASGFTFSDNDISWVRQAPGKGLEWVGSISPDNGDTNYADSVKGRFTISADTSKNTAYLQMNSLRAEDTAVYYCARDDVPAVFTSAMDYWGQGTLVTVSS
VL: DIQMTQSPSSLSASVGDRVTITCRASQDVSTAVAWYQQKPGKAPKLLIYSASFLYSGVPSRFSGSGSGTDFTLTISSLQPEDFATYYCQQSYTTPPTFGQGTKVEIKR
notes: also called Ab 3-5; Ab35
not listed: [9] | [10] | [11] | [12]
binds: all other assays above
